Record: PubChem BioAssay AID1224828 (NIAID, 2016)

Assay: 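Find genes required for NF-kappaB p65 moving into the nucleus after LPS in mouse macrophages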 (primary screen)
System: mouse RAW264.7 G9 macrophage reporter cells (GFP-p65, Tnf promoter-mCherry)
Knock-down reagent: siRNA pool against mouse genes, 100 nM
Timing: 2 days siRNA transfection, then 40 min LPS before fixation
Conditions: LPS (Salmonella minnesota R595) at 10 ng/ml
Read-out: 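Microscopy ratio of nuclear to perinuclear-ring GFP-p65 signal, scaled to the plate median; gene score is the average of two replicate robust z-scores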
Scale: p65 translocation robust z-score: higher = more nuclear NF-kappaB p65 after LPS than the plate median; nuclear/cytoplasmic p65 ratio: higher = more nuclear NF-kappaB p65
Active means: 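Called active when z exceeds 3.3 or falls under -1.56 (median of Tlr4 controls), giving activity score of at least 50; no calls for control wells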
Calls: active = hit (p65 shift raised or lowered); inactive = no clear change
Here is a random part of about 17,000 reagents tested. In the full data, 762 (4.5%) got an active call. 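Active calls include both raised and lowered p65 entry, mostly lowered; wells with fewer than 50 cells lack a z-score.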 The raw values are shown without normalisation.

gene | p65 translocation robust z-score | nuclear/cytoplasmic p65 ratio, rep 1 | nuclear/cytoplasmic p65 ratio, rep 2 | low cell count flag | call
Dtwd1 (DTW domain containing 1) | – | 1.28 | 1.2 | fewer than 50 cells per well; well left out of scoring | inactive
Mfsd6 (major facilitator superfamily domain containing 6) | -1.72 | 1.21 | 1.3 | enough cells to score | active
Tcl1b1 (T cell leukemia/lymphoma 1B, 1) | – | 0 | 1.01 | fewer than 50 cells per well; well left out of scoring | inactive
Notch1 (notch 1) | -0.15 | 1.51 | 1.31 | enough cells to score | inactive
Pou4f3 (POU domain, class 4, transcription factor 3) | 1.02 | 1.34 | 1.54 | enough cells to score | inactive
Dcakd (dephospho-CoA kinase domain containing) | 0.97 | 1.51 | 1.73 | enough cells to score | inactive
Rnf182 (ring finger protein 182) | 0.33 | 1.67 | 1.8 | enough cells to score | inactive
Kcnab1 | -1.41 | 1.28 | 1.09 | enough cells to score | inactive
Slc10a1 | -0.21 | 1.48 | 1.56 | enough cells to score | inactive
Rab33a (RAB33A, member RAS oncogene family) | -0.28 | 1.5 | 1.46 | enough cells to score | inactive
Adcy7 (adenylate cyclase 7) | 0.47 | 1.61 | 1.83 | enough cells to score | inactive
Dcx (doublecortin) | – | 1.65 | 1.92 | fewer than 50 cells per well; well left out of scoring | inactive
Pard6a (par-6 family cell polarity regulator alpha) | 1.65 | 1.7 | 1.4 | enough cells to score | inactive
Ctps1 (cytidine 5'-triphosphate synthase 1) | -0.15 | 1.45 | 1.37 | enough cells to score | inactive
Tmem209 (transmembrane protein 209) | 0.42 | 1.5 | 1.47 | enough cells to score | inactive
Arhgef10l (Rho guanine nucleotide exchange factor 10-like) | -1.21 | 1.1 | 1.12 | enough cells to score | inactive
Efhd1 (EF hand domain containing 1) | -0.28 | 1.29 | 1.33 | enough cells to score | inactive
Wfdc21 (WAP four-disulfide core domain 21) | 0.11 | 1.48 | 1.54 | enough cells to score | inactive
6430548M08Rik (RIKEN cDNA 6430548M08 gene) | 0 | 1.32 | 1.51 | enough cells to score | inactive
Uqcrh (ubiquinol-cytochrome c reductase hinge protein) | 0.78 | 1.83 | 1.63 | enough cells to score | inactive
4930591A17Rik (RIKEN cDNA 4930591A17 gene) | – | 1.29 | 1.18 | fewer than 50 cells per well; well left out of scoring | inactive

Next part; the last 4 above are carried over.
gene | p65 translocation robust z-score | nuclear/cytoplasmic p65 ratio, rep 1 | nuclear/cytoplasmic p65 ratio, rep 2 | low cell count flag | call
Wfdc21 (WAP four-disulfide core domain 21) | 0.11 | 1.48 | 1.54 | enough cells to score | inactive
6430548M08Rik (RIKEN cDNA 6430548M08 gene) | 0 | 1.32 | 1.51 | enough cells to score | inactive
Uqcrh (ubiquinol-cytochrome c reductase hinge protein) | 0.78 | 1.83 | 1.63 | enough cells to score | inactive
4930591A17Rik (RIKEN cDNA 4930591A17 gene) | – | 1.29 | 1.18 | fewer than 50 cells per well; well left out of scoring | inactive
Rfxank (regulatory factor X-associated ankyrin-containing protein) | -0.22 | 1.64 | 1.33 | enough cells to score | inactive
Syt17 (synaptotagmin XVII) | -0.02 | 1.42 | 1.53 | enough cells to score | inactive
Mtrfr (mitochondrial translation release factor in rescue) | -0.84 | 1.45 | 1.35 | enough cells to score | inactive
Htr3b (5-hydroxytryptamine (serotonin) receptor 3B) | – | 1.42 | 1.67 | fewer than 50 cells per well; well left out of scoring | inactive
Gfra4 | -0.73 | 1.4 | 1.22 | enough cells to score | inactive
Pcid2 (PCI domain containing 2) | -0.71 | 1.27 | 1.43 | enough cells to score | inactive
Map2k1 (mitogen-activated protein kinase kinase 1) | 2.72 | 1.66 | 1.72 | enough cells to score | inactive
Fbxw4 (F-box and WD-40 domain protein 4) | -0.17 | 1.37 | 1.41 | enough cells to score | inactive
Stk10 (serine/threonine kinase 10) | -0.38 | 1.49 | 1.34 | enough cells to score | inactive
Fcsk (fucose kinase) | 1.13 | 1.94 | 1.47 | enough cells to score | inactive
Tmem94 (transmembrane protein 94) | – | 1.52 | 1.49 | fewer than 50 cells per well; well left out of scoring | inactive
H6pd (hexose-6-phosphate dehydrogenase (glucose 1-dehydrogenase)) | 0.62 | 1.71 | 1.66 | enough cells to score | inactive
Enc1 (ectodermal-neural cortex 1) | 0.19 | 1.51 | 1.38 | enough cells to score | inactive
Aasdhppt | -0.6 | 1.25 | 1.5 | enough cells to score | inactive
Syt8 (synaptotagmin VIII) | – | 1.01 | 0.968 | fewer than 50 cells per well; well left out of scoring | inactive
Ddx56 (DEAD box helicase 56) | -0.1 | 1.51 | 1.58 | enough cells to score | inactive
1700030K09Rik (RIKEN cDNA 1700030K09 gene) | – | 1.13 | 1.51 | fewer than 50 cells per well; well left out of scoring | inactive
Fut2 (fucosyltransferase 2) | -0.99 | 1.25 | 1.3 | enough cells to score | inactive
Sh3gl3 (SH3-domain GRB2-like 3) | -0.46 | 1.54 | 1.43 | enough cells to score | inactive
Dlg5 (discs large MAGUK scaffold protein 5) | -0.22 | 1.47 | 1.37 | enough cells to score | inactive
Coro2b (coronin, actin binding protein, 2B) | 0.49 | 1.62 | 1.37 | enough cells to score | inactive
Pus1 (pseudouridine synthase 1) | 0.82 | 1.56 | 1.24 | enough cells to score | inactive
Mab21l4 (mab-21-like 4) | – | 1.45 | 1.55 | fewer than 50 cells per well; well left out of scoring | inactive
Mims2 (mitochondrial inner membrane scaffold 2) | -0.26 | 1.33 | 1.39 | enough cells to score | inactive
Ankk1 (ankyrin repeat and kinase domain containing 1) | -0.74 | 1.56 | 1.3 | enough cells to score | inactive
Il18 (interleukin 18) | -0.53 | 1.43 | 1.29 | enough cells to score | inactive
Cd3d (CD3 antigen, delta polypeptide) | 0.38 | 1.53 | 1.41 | enough cells to score | inactive
Alpk2 (alpha-kinase 2) | 1.06 | 2.1 | 1.32 | enough cells to score | inactive
Or4k77 (olfactory receptor family 4 subfamily K member 77) | 1.73 | 1.75 | 1.75 | enough cells to score | inactive
Tnfrsf26 (tumor necrosis factor receptor superfamily, member 26) | -1.26 | 1.16 | 1.05 | enough cells to score | inactive
Ifi44 (interferon-induced protein 44) | 0.96 | 1.92 | 1.6 | enough cells to score | inactive
Carns1 (carnosine synthase 1) | -1.2 | 1.46 | 1.46 | enough cells to score | inactive
Braf (B-Raf proto-oncogene, serine/threonine kinase) | -2.14 | 1.43 | 1.05 | enough cells to score | active
Coasy (Coenzyme A synthase) | 0.06 | 1.76 | 1.35 | enough cells to score | inactive
Rab34 (RAB34, member RAS oncogene family) | 0.72 | 1.42 | 1.34 | enough cells to score | inactive
Gpr26 (G protein-coupled receptor 26) | -2.78 | 1.15 | 1.14 | enough cells to score | active
Eda (ectodysplasin-A) | 0.57 | 1.38 | 1.59 | enough cells to score | inactive
Ctbp2 (C-terminal binding protein 2) | -0.5 | 1.46 | 1.27 | enough cells to score | inactive
